{"source": "PubChem BioAssay AID686937 (Drosophila RNAi Screening Center, 2013)", "test": "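Knock-downs that reduce output of a secreted reporter enzyme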 (primary screen)", "cell system": "Drosophila S2 cells expressing secreted horseradish peroxidase", "reagents": "long dsRNA against Drosophila genes", "duration": "about 5.5 days (5 days dsRNA, then 12 h reporter induction)", "challenge": "reporter expression induced after 5 days of dsRNA, read 12 h later; inducer not stated", "measurement": "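Chemiluminescent measurement of peroxidase in the medium 12 h after reporter induction, following 5 days of dsRNA, given as a z-score per plate; higher means more secretion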", "scale": "z-score: higher = more reporter secreted into medium", "note": "The deposit covers about 23,000 reagents; shown is an unselected part of those with a known target gene and a result. 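Reduced-secretion tags in replicate 1 do not always agree with the z-scores; no criterion for assigning the tags was given.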 Reagents against one gene are numbered here. A plus sign joins genes that one reagent is predicted to hit. Further read-outs or replicates are left out here. Reagent sequences are not shown. Not stated in the record: the amount of reagent."}
{"gene knocked down": "CG1738", "reagent no.": 1, "z-score, replicate 1": 0.6}
{"gene knocked down": "CG9269", "reagent no.": 1, "z-score, replicate 1": 0.36}
{"gene knocked down": "Ak3", "reagent no.": 1, "z-score, replicate 1": 0.11}
{"gene knocked down": "CG12539", "reagent no.": 1, "z-score, replicate 1": 0.31}
{"gene knocked down": "Cyp4ae1", "reagent no.": 1, "z-score, replicate 1": 0.16}
{"gene knocked down": "Gr28b", "reagent no.": 1, "z-score, replicate 1": 0.27}
{"gene knocked down": "Gr28b", "reagent no.": 2, "z-score, replicate 1": 0.29}
{"gene knocked down": "Cyp9h1", "reagent no.": 1, "z-score, replicate 1": 0.2}
{"gene knocked down": "ric8b + ric8a", "reagent no.": 1, "z-score, replicate 1": 0.28}
{"gene knocked down": "CG3808", "reagent no.": 1, "z-score, replicate 1": 0.46}
{"gene knocked down": "Uch", "reagent no.": 1, "z-score, replicate 1": 0.39}
{"gene knocked down": "ppk31", "reagent no.": 1, "z-score, replicate 1": 0.42}
{"gene knocked down": "Cap-D3", "reagent no.": 1, "z-score, replicate 1": 0.44}
{"gene knocked down": "CG11570", "reagent no.": 1, "z-score, replicate 1": 0.28}
{"gene knocked down": "CG42354 + CG42353", "reagent no.": 1, "z-score, replicate 1": -0.79}
{"gene knocked down": "Aef1", "reagent no.": 1, "z-score, replicate 1": 0.09}
{"gene knocked down": "betaGlu", "reagent no.": 1, "z-score, replicate 1": 0.23}
{"gene knocked down": "comr", "reagent no.": 1, "z-score, replicate 1": 0.13}
{"gene knocked down": "CG11986", "reagent no.": 1, "z-score, replicate 1": 0.17}
{"gene knocked down": "Oatp30B", "reagent no.": 1, "z-score, replicate 1": 0.03}
{"gene knocked down": "cno", "reagent no.": 1, "z-score, replicate 1": 0.12}
{"gene knocked down": "cno", "reagent no.": 2, "z-score, replicate 1": -2.86}
{"gene knocked down": "CG1827", "reagent no.": 1, "z-score, replicate 1": 0.41}
{"gene knocked down": "CG33557", "reagent no.": 1, "z-score, replicate 1": 0.21}
{"gene knocked down": "Drep2", "reagent no.": 1, "z-score, replicate 1": 0.11}
{"gene knocked down": "CG6034", "reagent no.": 1, "z-score, replicate 1": 0.28}
{"gene knocked down": "GstO3", "reagent no.": 1, "z-score, replicate 1": 0.07}
{"gene knocked down": "Dgk", "reagent no.": 1, "z-score, replicate 1": -0.92}
{"gene knocked down": "Dgk", "reagent no.": 2, "z-score, replicate 1": 0.47}
{"gene knocked down": "Dgk", "reagent no.": 3, "z-score, replicate 1": 0.54}
{"gene knocked down": "Dgk", "reagent no.": 4, "z-score, replicate 1": 0.29}
{"gene knocked down": "Dgk", "reagent no.": 5, "z-score, replicate 1": 0.06}
{"gene knocked down": "CG13193", "reagent no.": 1, "z-score, replicate 1": 0.32}
{"gene knocked down": "mtt", "reagent no.": 1, "z-score, replicate 1": -0.23}
{"gene knocked down": "mtt", "reagent no.": 2, "z-score, replicate 1": -0.82}
{"gene knocked down": "mtt", "reagent no.": 3, "z-score, replicate 1": 0.35}
{"gene knocked down": "mtt", "reagent no.": 4, "z-score, replicate 1": 0.56}
{"gene knocked down": "en", "reagent no.": 1, "z-score, replicate 1": 0.4}
{"gene knocked down": "Epp", "reagent no.": 1, "z-score, replicate 1": 0.24}
{"gene knocked down": "fs(1)h", "reagent no.": 1, "z-score, replicate 1": -3.78}

Reformatted: results already given.
CG11570: z-score, replicate 1 = 0.28
CG42354 + CG42353: z-score, replicate 1 = -0.79
Aef1: z-score, replicate 1 = 0.09
betaGlu: z-score, replicate 1 = 0.23
comr: z-score, replicate 1 = 0.13
